Test results reported in doi:10.1101/2025.08.11.669663.
Results are given in words; binding and its absence hold for the method and conditions named. Binding seen in cells or lysates may run through a third protein. These calls come from enrichment with a bait or labelling near it, and not all partners need be listed.

Amino acid sequences for entries named in this document (tags omitted).
UniProt P00441, whole entry: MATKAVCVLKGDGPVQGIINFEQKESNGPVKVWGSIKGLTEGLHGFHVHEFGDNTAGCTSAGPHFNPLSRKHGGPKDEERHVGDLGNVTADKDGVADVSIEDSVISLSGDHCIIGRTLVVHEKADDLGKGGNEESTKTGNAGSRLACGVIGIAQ

What follows are substances tested against HA-tagged SOD1 (UniProt P00441) (assay: affinity purification with mass spectrometry).

binding, binds:
FEN1 (from UniProt P39748 1-380)
PCNA (from UniProt P12004 1-261)
POLD1 (a DNA polymerase subunit) (from UniProt P28340 1-1107)
glyceraldehyde-3-phosphate dehydrogenase (GAPDH) (from UniProt P04406 1-335)
